# Source: PubChem BioAssay AID2685 (National Center for Advancing Translational Sciences (NCATS), 2010)
# Some of the results follow. The main result of the screen is listed elsewhere. These columns were measured beside it and carry no call. Most of these compounds were active or inconclusive in the main read-out, so they are no random draw. The note in brackets gives the kind of curve behind each potency; many fits are weak.
# Experiment: qHTS Assay for Lipid Storage Modulators in Drosophila S3 Cells;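 as to cell number change: cells counted by Cell Tracker Red CMTPX staining in the red channel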
# Conditions: BODIPY lipid droplet fluorescence, 18-24 h; for cell number change: measured here: cell count max response, cells fed with added oleic acid
# Procedure, shortened: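 Laser-scanning cytometry quantifies lipid droplet accumulation (500–530 nm total intensity; droplet/cell object ratio) in oleic acid-fed (400 uM added) Drosophila S3 cells treated with a concentration series. 20 uM Triacsin C defined 100% inhibition.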
# [1] = measured here: lipid fluorescence (Fed channel) AC50, cells fed with added oleic acid
# [2] = measured here: cell number channel AC50, cells fed with added oleic acid
Structure (SMILES),cell number change,AC50 [1],AC50 [2]
CC1CCN(c2ccc3nnc(CCC(=O)Nc4cc(F)ccc4F)n3n2)CC1,6.11%,"29.1 µM [rising, single point]",
Cc1cc(C(=O)CSc2n[nH]c(N)n2)c(C)n1-c1cc(F)ccc1F,4.37%,,
CCN(CC(=O)Nc1c(F)cccc1F)C(=O)CCSc1ccc(F)cc1,-11.5%,,
COc1ccc(OC)c(S(=O)(=O)NC2CC(=O)N(c3cccc(F)c3)C2)c1 (stereo not given),,"2.59 µM [rising, single point]",
CCNc1nc(NC(C)C)nc(Oc2ccc(/C=N/O)cc2)n1,15.1%,"6.51 µM [falling, single point]",
COc1ccc2c(c1)c1nc(SCC(C)C)n(CCO)c(=O)c1n2C,7.38%,"6.51 µM [rising, single point]",
O=C(CN(C(=O)c1csnn1)c1ccc(F)c(Cl)c1)NCc1ccccc1,7.62%,"0.206 µM [falling, single point]",
Cc1ccc(C2(C(F)(F)F)NC(=O)N3C(=C2C#N)Nc2ccccc23)cc1 (stereo not given),,"29.1 µM [rising, single point]","0.00411 µM [rising, full curve, poor fit]"
Cc1ccc(NC(=O)CC2SC3=NCCN3C2=O)cc1 (stereo not given),-77.8%,"20.6 µM [falling, single point]","18.4 µM [falling, single point]"
COc1ccc(C2(C(=O)c3ccccc3)C(=O)c3ccccc3C2=O)cc1,-3.31%,,"0.92 µM [falling, full curve, poor fit]"
CC(=O)N/C(=C\c1ccccc1)C(=O)OC/C=C/c1ccccc1,23.2%,"29.1 µM [rising, partial curve]",
O=C1/C(=C\c2c(NCCOCCO)nc3ccccn3c2=O)SC(=S)N1Cc1ccco1,42.2%,,
Clc1ccc(OCc2nc3ccccc3[nH]2)cc1,16.9%,,
O=C(Nc1cccc(C(F)(F)F)c1)OCCN1CCN(Cc2ccccc2)CCC1=O,34.1%,"13 µM [rising, partial curve]","10.3 µM [rising, partial curve]"
COc1cc(C(=O)NCCC(C)C)c([N+](=O)[O-])cc1OC,-16.3%,,
CC(C)Cn1c2c(c(O)c(C(=O)Nc3nccs3)c1=O)CCCC2,-9.19%,"0.13 µM [falling, full curve]",
CN(C(=O)CC1C(=O)NCCN1Cc1ccc(F)cc1Cl)C1CCCCC1 (stereo not given),13.5%,,
CC(=O)c1ccc(S(=O)(=O)N(CCCO)Cc2cc3cc4c(cc3[nH]c2=O)OCCO4)cc1,3.95%,,
COc1ccc(NC(=O)c2cc3ccccc3o2)cn1,5.28%,"29.1 µM [falling, single point]",
COc1ccc(C(=O)NCC2CCCO2)cc1OC (stereo not given),-25.7%,"0.184 µM [falling, full curve, poor fit]",
COc1ccc(C2C(C(N)=O)=C(C)Nc3nc(CCCO)nn32)cc1 (stereo not given),-11.1%,,

# As entered above.
# Entry for `CC1CCN(c2ccc3nnc(CCC(=O)Nc4cc(F)ccc4F)n3n2)CC1` under cell number change: 6.11%
# Entry for `Cc1ccc(NC(=O)CC2SC3=NCCN3C2=O)cc1` (stereo not given) under cell number change: -77.8%
# Entry for `CC(=O)c1ccc(S(=O)(=O)N(CCCO)Cc2cc3cc4c(cc3[nH]c2=O)OCCO4)cc1` under cell number change: 3.95%
# Entry for `COc1ccc2c(c1)c1nc(SCC(C)C)n(CCO)c(=O)c1n2C` under AC50 [1]: 6.51 µM [rising, single point]

# The list goes on.

Structure (SMILES),cell number change,AC50 [1],AC50 [2]
Cc1nn(CC2CC2)c(=O)n1-c1cccc(Cl)c1,8.66%,"0.731 µM [rising, single point]",
O=S(=O)(NCCc1ccccc1)c1ccc(Cl)nc1,33.3%,,"20.6 µM [rising, single point]"
CC(Sc1nnc(C2CC2)n1C1CC1)C(=O)c1ccc(Br)cc1 (stereo not given),-36.3%,"2.31 µM [falling, partial curve, poor fit]","14.6 µM [falling, partial curve]"
O=C(NCc1n[nH]c(=S)n1-c1cccc(Cl)c1)c1ccc(S(=O)(=O)N2CCCC2)cc1,-37.7%,"3.66 µM [rising, single point]","0.164 µM [falling, full curve, poor fit]"
COc1ccc(CNC(=O)C2CCCN2S(=O)(=O)c2ccc(F)cc2)cc1 (stereo not given),-40%,"29.1 µM [falling, single point]","29.1 µM [falling, single point]"
NC(=O)c1nsnc1-c1ccccc1O,-62.8%,,"3.26 µM [falling, full curve]"
COc1ccc(Br)cc1CN(C)C(=O)CNC(=O)c1ccc2ccccc2c1,-21%,"6.51 µM [falling, partial curve]",
Cc1ccc(Nc2ccc([N+](=O)[O-])nc2[N+](=O)[O-])cc1,24.4%,"18.4 µM [falling, partial curve, poor fit]","0.92 µM [falling, full curve]"
CCOC(=O)C1=C(c2ccccc2)OC(N)=C(C#N)C1c1ccc(Br)s1 (stereo not given),-11.9%,"29.1 µM [falling, single point]",
Cc1nc(N2CCN(Cc3ccc4c(c3)OCO4)CC2)nc2c1C(=O)CC(c1ccco1)C2 (stereo not given),-13.5%,"0.116 µM [rising, single point]",
Cc1ccccc1-c1nc2cc(NC(=O)C3CC3)ccc2o1,,,"0.92 µM [falling, full curve]"
COc1ccc(N2CCN(CC(=O)c3ccc(O)cc3O)CC2)cc1,34.3%,,"16.4 µM [rising, partial curve]"
O=C(O)CNS(=O)(=O)c1ccc2c3c(cccc13)C(=O)N2,8.99%,"29.1 µM [rising, single point]",
CC(=O)Nc1cccc(NC(=O)c2ccc(C)c([N+](=O)[O-])c2)c1,-16%,,"0.651 µM [falling, single point]"
O=C(Nc1ccccn1)C1CCN(S(=O)(=O)c2cccc3nonc23)CC1,30.1%,,"1.64 µM [rising, single point]"
COc1ccc(N2CCOCC2)c(NC(=O)COc2cccc(C)c2)c1,20.4%,"6.51 µM [falling, single point]",
CCOC(=O)CN(C(=O)CSc1nnc(-c2ccncc2)n1CCCN(C)C)c1ccccc1,-34.6%,"0.146 µM [falling, full curve]","0.184 µM [falling, full curve]"
O=C(CC1Sc2ncnn2C1=O)Nc1ccc(Cl)cc1 (stereo not given),,,"3.26 µM [rising, single point]"
O=C(c1cccc(Cl)c1)N1CCCC(C(=O)N2CCN(c3ccccc3)CC2)C1 (stereo not given),-18.8%,"6.51 µM [rising, single point]","0.366 µM [rising, single point]"
COc1ccccc1CNC(=O)c1ccccc1OCc1ccc(F)cc1,12.3%,"18.4 µM [rising, partial curve, poor fit]",
CCN1C(=O)c2cccc3c(S(=O)(=O)Nc4ccccc4O)ccc1c23,-20.5%,,"0.0058 µM [rising, full curve, poor fit]"

Structure (SMILES),cell number change,AC50 [1],AC50 [2]
CCc1cc(C(=O)NNC(=S)Nc2ccccc2C)cs1,-38.5%,,"0.103 µM [falling, full curve, poor fit]"
COc1ccccc1C(=O)Nc1ccc(NC(=O)C2CCCCC2)nc1,4.27%,,
Cc1c(-c2ccccc2)oc2c(C(=O)OCC(=O)Nc3cccc(F)c3)cccc2c1=O,3.41%,"25.9 µM [rising, single point]",
COc1ccccc1OCC(=O)Nc1ccc(S(=O)(=O)NC(C)=O)cc1,3.44%,,
Cc1ccc(CNC(=O)CS(=O)(=O)Cc2nc(-c3ccccc3F)oc2C)cc1,-6.63%,,
COCCNC(=O)C(c1ccc(C)cc1)N(C(=O)CCC(=O)Nc1ccccn1)c1ccccc1C (stereo not given),-12.1%,,
CCC(C)[C@H](NC(=O)NCCCOC(C)C)C(=O)OC (stereo not given in full),4%,,"6.51 µM [falling, single point]"
CC(C)(C)c1ccc(OCC(=O)OCCNC(=O)c2cccnc2)cc1,-14.7%,,"4.61 µM [falling, single point]"
O=C1CC(C(=O)O)(c2ccccc2)c2cccc(F)c21 (stereo not given),41.1%,"29.1 µM [rising, single point]","29.1 µM [rising, single point]"
Cc1ccc(C(=O)N[C@H](C(=O)OCC(=O)c2ccc[nH]2)C(C)C)cc1,,"2.31 µM [rising, partial curve, poor fit]",
COCCN(C(=O)c1ccc(-c2ccc([N+](=O)[O-])cc2)o1)c1c(N)n(CC(C)C)c(=O)[nH]c1=O,,"0.00461 µM [rising, full curve, poor fit]",
COCc1cccc(NC(=O)CCc2ccccc2)c1,2.94%,,
CN(C(=O)CSc1nc2cc(C(=O)O)ccc2c(=O)n1Cc1ccccc1)C1CCS(=O)(=O)C1 (stereo not given),-76.6%,,"29.1 µM [falling, single point]"
O=C(c1cccc(S(=O)(=O)N2CCCCC2)c1)N1CCN(S(=O)(=O)c2ccc(F)cc2)CC1,-0.583%,"25.9 µM [falling, single point]",
O=S(=O)(c1ccccc1)N1CCN=C1SCc1cccc(Cl)c1,33%,,"14.6 µM [rising, single point]"
COc1ccc(C(=O)OCCN2C(=O)c3ccccc3C2=O)cc1,-2.4%,,
Cc1ccc(C(C(=O)NC(C)(C)C)N(Cc2ccccc2)C(=O)c2snc(C(N)=O)c2N)o1 (stereo not given),-53.6%,,"29.1 µM [falling, single point]"
CC(NC(=O)C(C)N1CCN(S(=O)(=O)c2ccccc2)CC1)c1ccccc1 (stereo not given),25.7%,"2.06 µM [rising, full curve]","1.64 µM [rising, full curve, poor fit]"
COc1cc(CNCCO)cc(Br)c1OCc1cccs1,-10.6%,"6.51 µM [rising, single point]",
NC(=O)CNC(=O)[C@@H]1CC2(CC(c3ccc(Cl)cc3)=NO2)CN1C(=O)c1ccc(Br)cc1 (stereo not given in full),-11.8%,"25.9 µM [falling, single point]",
